# Values of other authors in patent publication US12642806B2, “Cannabidiol compositions for use in treating heart conditions” (CARDIOL THERAPEUTICS INC., priority 2019, dated 2026).
# Conditions: background statement; cited from earlier work
smiles,measurement,value
"C=C(C)[C@@H]1CCC(C)=C[C@H]1c1c(O)cc(CCCCC)cc1O [CBD, cannabidiol]",solubility in water,virtually insoluble in water
